Assay results reported in PubChem BioAssay AID180 (DTP/NCI, 2004).
The list does not hold the whole screen: it gathers tests that were run many times, whatever their T/C, doses with no T/C, and many T/C values between a quarter and a half above the control. Other doses and runs of a compound stand elsewhere. T/C: endpoint of the treated group in % of that of the vehicle group. Schedules are NCI's codes, taken here to give the interval after Q, in days (D) or hours (H), and the number of doses after X. Some T/C values carry the count of animals alive at the toxicity check (mostly the fifth day); where none is given, no animal had died by that day. Some entries were tested several times; the values are given in rising order. Some doses have a count of surviving animals in place of a T/C: the source files T/C as zero there, which appears to mark a toxic dose or a test without result, not a measured value. Survivors were counted at the toxicity check, usually on the fifth day, unless a day is given; later deaths do not show.

Test system: BDF1 mice, Adenocarcinoma 755 s.c., tumor weight T/C
Assay: NCI In Vivo Anticancer Drug Screen. Data for tumor model Adenocarcinoma 755 (subcutaneous) in B6D2F1 (BDF1) mice
Conditions: T/C endpoint: mean tumor weight, higher T/C = larger tumour; for T/C: evaluated on day 12
Summary of the method: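 Tumor-bearing mice receive test compound while controls get vehicle alone. Antitumor effect is scored from survival or tumor dimensions as a T/C quotient.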

[1] = dose: 560.0 mg/kg/injection, schedule: Q01DX001 (ip), vehicle: saline
[2] = dose: 60.0 mg/kg/injection, schedule: Q01DX011 (ip), vehicle: carboxymethylcellulose (CMC)
[3] = dose: 25.0 mg/kg/injection, schedule: Q01DX011 (ip), vehicle: other
[4] = dose: 250.0 mg/kg/injection, schedule: Q01DX011 (ip), vehicle: methylcellulose (MC)
[5] = dose: 120.0 mg/kg/injection, schedule: Q01DX011 (ip), vehicle: carboxymethylcellulose (CMC)

CS(=O)(=O)OCCCCOS(C)(=O)=O
T/C (dose: 7.5 mg/kg/injection, schedule: Q03DX004 (ip), vehicle: saline): 127 % of control
T/C (dose: 8.0 mg/kg/injection, schedule: Q01DX011 (ip), vehicle: carboxymethylcellulose (CMC)): 133 % of control
T/C (dose: 40.0 mg/kg/injection, schedule: Q01DX011 (ip), vehicle: saline): 49, 56, 62, 79 % of control
survivor count (dose: 53.3 mg/kg/injection, schedule: Q01DX011 (ip), vehicle: carboxymethylcellulose (CMC)): 3 of 10
T/C (dose: 70.0 mg/kg/injection, schedule: Q01DX001 (ip), vehicle: saline): 130 % of control
survivor count (dose: 80.0 mg/kg/injection, schedule: Q01DX011 (im), vehicle: saline): 0 of 10
T/C (dose: 80.0 mg/kg/injection, schedule: Q01DX011 (ip), vehicle: saline): 23 [9 of 10 alive], 24, 35, 39 % of control
survivor count (dose: 140.0 mg/kg/injection, schedule: Q01DX011 (ip), vehicle: carboxymethylcellulose (CMC)): 2 of 10
survivor count (dose: 160.0 mg/kg/injection, schedule: Q01DX011 (sc), vehicle: saline): 0 of 10
T/C (dose: 280.0 mg/kg/injection, schedule: Q01DX001 (ip), vehicle: saline): 130 and 131 % of control [9 of 10 alive]
survivor count (dose: 320.0 mg/kg/injection, schedule: Q01DX011 (ip), vehicle: saline): 0 of 10
survivor count (dose: 320.0 mg/kg/injection, schedule: Q01DX011 (sc), vehicle: saline): 0 of 10
survivor count (dose: 480.0 mg/kg/injection, schedule: Q03DX004 (ip), vehicle: saline): 0 of 10
T/C [1]: 59, 102, 120 % of control
survivor count [1]: 0 of 10
survivor count (dose: 560.0 mg/kg/injection, schedule: Q07DX002 (ip), vehicle: saline): 5 of 10
survivor count (dose: 1120.0 mg/kg/injection, schedule: Q01DX001 (ip), vehicle: saline): 0 of 10

COc1cc(/C=N/Nc2nc3c([nH]2)c(=O)n(C)c(=O)n3C)ccc1O
T/C [2]: 148 % of control [9 of 10 alive]
survivor count (dose: 240.0 mg/kg/injection, schedule: Q01DX011 (ip), vehicle: carboxymethylcellulose (CMC)): 6 of 10

O=C(O)CCc1c[nH]c2ccc(N(CCCl)CCCl)cc12
survivor count (dose: 10.0 mg/kg/injection, schedule: Q01DX011 (ip), vehicle: carboxymethylcellulose (CMC)): 0 of 10

c1nc(N2CC2)c2cnn(C3CCCCO3)c2n1 (stereo not given)
survivor count (dose: 50.0 mg/kg/injection, schedule: Q01DX011 (ip), vehicle: saline): 6 of 10

CCN(CC)c1ccc2cc3ccc(=[N+](CC)CC)cc-3oc2c1
T/C (dose: 2.55 mg/kg/injection, schedule: Q01DX011 (ip), vehicle: carboxymethylcellulose (CMC)): 125 [8 of 10 alive] and 127 % of control
T/C (dose: 3.4 mg/kg/injection, schedule: Q01DX011 (ip), vehicle: carboxymethylcellulose (CMC)): 138 % of control
survivor count (dose: 5.0 mg/kg/injection, schedule: Q01DX011 (ip), vehicle: methylcellulose (MC)): 3 of 10
T/C (dose: 5.1 mg/kg/injection, schedule: Q01DX011 (ip), vehicle: carboxymethylcellulose (CMC)): 127 % of control [7 of 10 alive]
survivor count (dose: 15.0 mg/kg/injection, schedule: Q01DX011 (ip), vehicle: other): 4 of 10

CC(=O)N(C1CCCCC1)C1CCCCC1
survivor count [3]: 1 of 10

Nc1nc(N)c(N)c(Nc2ccc(Br)cc2)n1
survivor count (dose: 62.0 mg/kg/injection, schedule: Q01DX011 (ip), vehicle: saline): 2 of 10

CCCN1CCC(=O)NC1=S
survivor count [4]: 6 of 10

C/C=C1\CN(C)[C@H]2Cc3c([nH]c4ccccc34)[C@@H](c3cc4[nH]c5c(c4cc3OC)CCN3C[C@H]4C[C@H](CC)[C@H]3[C@@]5(C(=O)OC)C4)C[C@H]1C2C(=O)OC (stereo not given in full)
survivor count (dose: 60.0 mg/kg/injection, schedule: Q01DX011 (ip), vehicle: water): 2 of 12

Nc1ncnc2c1ncn2C(C=O)OC(C=O)CO (stereo not given)
survivor count (dose: 30.0 mg/kg/injection, schedule: Q01DX011 (ip), vehicle: carboxymethylcellulose (CMC)): 6 of 10
survivor count [2]: 0 of 10
survivor count [5]: 0 of 10

O=C(O)c1ccc(-c2ccccc2)cc1
survivor count (dose: 400.0 mg/kg/injection, schedule: Q01DX011 (ip), vehicle: carboxymethylcellulose (CMC)): 0 of 10
survivor count (dose: 800.0 mg/kg/injection, schedule: Q01DX011 (ip), vehicle: carboxymethylcellulose (CMC)): 0 of 10

COc1cc(C(=O)O)nc(SC)n1
survivor count [4]: 1 of 10

Nc1nc(=S)c2ncn(C3OC(CO)C(O)C3O)c2[nH]1 (stereo not given)
survivor count (dose: 4.0 mg/kg/injection, schedule: Q01DX011 (ip), vehicle: carboxymethylcellulose (CMC)): 5 of 10
survivor count (dose: 6.0 mg/kg/injection, schedule: Q01DX011 (ip), vehicle: methylcellulose (MC)): 5 of 10
survivor count (dose: 6.6 mg/kg/injection, schedule: Q01DX011 (ip), vehicle: carboxymethylcellulose (CMC)): 1 of 10

CS(=O)(=O)OCCC(=O)NCCCCCNC(=O)CCOS(C)(=O)=O
survivor count (dose: 450.0 mg/kg/injection, schedule: Q01DX011 (ip), vehicle: methylcellulose (MC)): 6 of 10

O=c1[nH]c(=O)n(C2CC(O)C(CO)O2)cc1F (stereo not given)
survivor count (dose: 150.0 mg/kg/injection, schedule: Q01DX011 (ip), vehicle: other): 6 of 12

S=P(Oc1ccccc1)(N1CC1)N1CC1
survivor count (dose: 110.0 mg/kg/injection, schedule: Q01DX011 (ip), vehicle: methylcellulose (MC)): 2 of 10

Nc1ncnc2c1cnn2Cc1ccc(Cl)cc1
T/C (dose: 9.5 mg/kg/injection, schedule: Q01DX011 (ip), vehicle: carboxymethylcellulose (CMC)): 143 % of control
survivor count (dose: 75.0 mg/kg/injection, schedule: Q01DX011 (ip), vehicle: carboxymethylcellulose (CMC)): 2 of 10

COc1cc(C(=O)[O][Hg][CH2]C2COC([CH2][Hg][O]C(=O)c3cc(OC)c(OC)c(OC)c3)CO2)cc(OC)c1OC (stereo not given)
survivor count (dose: 50.0 mg/kg/injection, schedule: Q01DX011 (ip), vehicle: carboxymethylcellulose (CMC)): 3 of 10
survivor count (dose: 100.0 mg/kg/injection, schedule: Q01DX011 (ip), vehicle: carboxymethylcellulose (CMC)): 0 of 10
survivor count (dose: 200.0 mg/kg/injection, schedule: Q01DX011 (ip), vehicle: carboxymethylcellulose (CMC)): 0 of 10

CCc1c(Cl)nc(N)nc1Nc1ccc(Cl)c(Cl)c1
T/C (dose: 62.0 mg/kg/injection, schedule: Q01DX011 (ip), vehicle: methylcellulose (MC)): 137 % of control
survivor count (dose: 125.0 mg/kg/injection, schedule: Q01DX011 (ip), vehicle: methylcellulose (MC)): 6 of 10
T/C [4]: 141 % of control

N#CCCn1cnc2c(Cl)ncnc21
T/C [3]: 148 % of control

O=S(=O)(OCCCl)OCCCl
survivor count (dose: 50.0 mg/kg/injection, schedule: Q01DX011 (ip), vehicle: olive oil, sesame oil, peanut oil): 4 of 10

S=P(N1CC1)(N1CC1)N1CC1
T/C (dose: 0.48 mg/kg/injection, schedule: Q01DX011 (ip), vehicle: carboxymethylcellulose (CMC)): 129 % of control
T/C (dose: 0.58 mg/kg/injection, schedule: Q01DX011 (ip), vehicle: carboxymethylcellulose (CMC)): 146 % of control
T/C (dose: 2.08 mg/kg/injection, schedule: Q01DX011 (ip), vehicle: carboxymethylcellulose (CMC)): 125 % of control
T/C (dose: 2.6 mg/kg/injection, schedule: Q01DX011 (ip), vehicle: carboxymethylcellulose (CMC)): 128 % of control
T/C (dose: 3.46 mg/kg/injection, schedule: Q01DX011 (ip), vehicle: carboxymethylcellulose (CMC)): 125 % of control

CCOC(=O)NP(=O)(N1CC1)N1CC1
survivor count (dose: 20.0 mg/kg/injection, schedule: Q01DX011 (ip), vehicle: carboxymethylcellulose (CMC)): 6 of 10

C[C@@H]1CN(C(=O)CCOS(C)(=O)=O)[C@@H](C)CN1C(=O)CCOS(C)(=O)=O
survivor count [5]: 5 of 10
survivor count (dose: 480.0 mg/kg/injection, schedule: Q01DX011 (ip), vehicle: carboxymethylcellulose (CMC)): 0 of 10
